Data from the supplement of paper PMC6411743.
± gives the standard deviation of the averaged measurements. The list shows a part of the results, in another mix than the full data.

The chains behind the UniProt entries cited, without tags or fusion partners. Where a name states a change or a piece, a line headed by the entry shows the natural chain unless it says otherwise.
UniProt Q96A65: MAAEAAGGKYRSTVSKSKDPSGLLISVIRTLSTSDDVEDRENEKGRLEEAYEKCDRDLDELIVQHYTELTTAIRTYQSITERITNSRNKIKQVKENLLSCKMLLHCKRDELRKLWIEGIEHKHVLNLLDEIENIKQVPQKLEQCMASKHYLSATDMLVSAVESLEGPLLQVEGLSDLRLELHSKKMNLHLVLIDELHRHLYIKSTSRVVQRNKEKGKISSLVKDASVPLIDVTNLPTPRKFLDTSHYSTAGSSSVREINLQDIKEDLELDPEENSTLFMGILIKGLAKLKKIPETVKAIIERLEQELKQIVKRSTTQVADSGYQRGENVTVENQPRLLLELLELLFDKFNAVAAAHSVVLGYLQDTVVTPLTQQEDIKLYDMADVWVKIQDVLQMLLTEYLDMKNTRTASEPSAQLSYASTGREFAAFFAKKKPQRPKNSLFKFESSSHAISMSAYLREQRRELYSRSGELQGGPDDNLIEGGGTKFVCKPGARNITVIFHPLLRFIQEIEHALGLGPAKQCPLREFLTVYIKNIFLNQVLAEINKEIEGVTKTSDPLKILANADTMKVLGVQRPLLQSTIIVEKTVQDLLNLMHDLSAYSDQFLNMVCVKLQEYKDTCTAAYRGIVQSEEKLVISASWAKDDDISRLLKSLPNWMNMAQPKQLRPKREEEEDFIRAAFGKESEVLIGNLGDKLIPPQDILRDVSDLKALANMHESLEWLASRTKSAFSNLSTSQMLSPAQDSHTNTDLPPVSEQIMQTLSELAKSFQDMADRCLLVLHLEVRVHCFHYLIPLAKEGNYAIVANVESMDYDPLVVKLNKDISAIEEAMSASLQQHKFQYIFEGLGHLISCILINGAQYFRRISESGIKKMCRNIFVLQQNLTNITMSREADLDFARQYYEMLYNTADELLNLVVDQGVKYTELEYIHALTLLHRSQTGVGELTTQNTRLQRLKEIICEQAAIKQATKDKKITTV
UniProt Q92968: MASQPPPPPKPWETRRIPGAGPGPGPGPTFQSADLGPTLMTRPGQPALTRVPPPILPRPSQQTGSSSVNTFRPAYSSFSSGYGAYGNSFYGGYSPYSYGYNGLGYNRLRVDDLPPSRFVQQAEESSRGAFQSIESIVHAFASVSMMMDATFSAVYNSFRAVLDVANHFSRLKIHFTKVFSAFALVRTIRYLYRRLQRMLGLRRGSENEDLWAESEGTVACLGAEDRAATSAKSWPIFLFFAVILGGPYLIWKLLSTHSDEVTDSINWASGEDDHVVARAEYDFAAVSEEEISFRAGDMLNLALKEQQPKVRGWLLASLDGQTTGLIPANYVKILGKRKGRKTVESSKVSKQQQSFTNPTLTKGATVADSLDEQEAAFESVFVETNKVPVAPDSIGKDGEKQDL
UniProt Q93073: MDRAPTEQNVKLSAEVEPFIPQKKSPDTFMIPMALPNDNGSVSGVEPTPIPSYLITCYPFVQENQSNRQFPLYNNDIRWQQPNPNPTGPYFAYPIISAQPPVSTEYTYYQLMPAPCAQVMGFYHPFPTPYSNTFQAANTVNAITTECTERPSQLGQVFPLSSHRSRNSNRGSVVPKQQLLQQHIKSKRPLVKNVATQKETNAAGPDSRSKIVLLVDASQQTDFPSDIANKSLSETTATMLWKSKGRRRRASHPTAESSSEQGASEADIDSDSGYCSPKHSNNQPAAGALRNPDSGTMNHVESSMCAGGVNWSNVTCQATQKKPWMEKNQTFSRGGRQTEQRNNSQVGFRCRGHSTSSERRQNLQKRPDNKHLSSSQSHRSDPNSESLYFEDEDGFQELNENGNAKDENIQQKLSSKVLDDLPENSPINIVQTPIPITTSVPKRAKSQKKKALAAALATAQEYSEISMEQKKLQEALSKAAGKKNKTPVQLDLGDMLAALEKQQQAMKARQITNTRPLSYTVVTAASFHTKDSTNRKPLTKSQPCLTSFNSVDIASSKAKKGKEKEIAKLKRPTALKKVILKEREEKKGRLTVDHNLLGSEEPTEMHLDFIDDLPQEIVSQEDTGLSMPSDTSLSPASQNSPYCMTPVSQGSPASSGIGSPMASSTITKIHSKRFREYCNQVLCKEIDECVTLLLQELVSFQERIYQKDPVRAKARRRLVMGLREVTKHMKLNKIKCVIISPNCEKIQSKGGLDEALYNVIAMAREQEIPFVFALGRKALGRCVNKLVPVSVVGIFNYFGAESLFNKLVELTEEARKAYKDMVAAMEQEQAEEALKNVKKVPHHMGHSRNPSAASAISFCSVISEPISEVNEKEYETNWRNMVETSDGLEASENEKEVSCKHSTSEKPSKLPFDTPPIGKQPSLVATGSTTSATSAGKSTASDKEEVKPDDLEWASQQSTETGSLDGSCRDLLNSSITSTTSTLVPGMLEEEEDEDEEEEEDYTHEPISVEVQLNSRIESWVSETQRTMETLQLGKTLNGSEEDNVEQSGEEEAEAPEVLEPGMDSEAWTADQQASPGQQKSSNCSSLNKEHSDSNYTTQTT
UniProt Q96EM0: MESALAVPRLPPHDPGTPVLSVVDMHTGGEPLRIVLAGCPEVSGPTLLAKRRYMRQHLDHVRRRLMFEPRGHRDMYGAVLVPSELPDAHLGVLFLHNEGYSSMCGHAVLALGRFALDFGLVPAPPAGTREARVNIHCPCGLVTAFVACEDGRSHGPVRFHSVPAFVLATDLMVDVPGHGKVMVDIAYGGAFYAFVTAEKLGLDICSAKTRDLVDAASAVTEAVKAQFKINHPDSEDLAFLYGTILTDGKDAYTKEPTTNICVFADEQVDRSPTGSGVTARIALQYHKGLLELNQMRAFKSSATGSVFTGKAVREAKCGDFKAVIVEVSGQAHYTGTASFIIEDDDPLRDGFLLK
UniProt Q96EB1: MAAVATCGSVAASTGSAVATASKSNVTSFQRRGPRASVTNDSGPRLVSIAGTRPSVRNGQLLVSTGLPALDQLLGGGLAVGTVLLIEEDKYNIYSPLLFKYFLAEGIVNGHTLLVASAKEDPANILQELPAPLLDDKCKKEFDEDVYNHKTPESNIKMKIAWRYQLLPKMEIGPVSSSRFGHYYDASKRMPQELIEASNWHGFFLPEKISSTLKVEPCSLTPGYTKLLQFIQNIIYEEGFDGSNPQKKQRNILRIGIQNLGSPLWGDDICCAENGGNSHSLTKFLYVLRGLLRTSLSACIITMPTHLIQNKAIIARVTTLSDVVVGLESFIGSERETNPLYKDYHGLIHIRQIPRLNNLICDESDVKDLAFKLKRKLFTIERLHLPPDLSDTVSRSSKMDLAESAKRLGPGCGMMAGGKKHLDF
UniProt Q96G61: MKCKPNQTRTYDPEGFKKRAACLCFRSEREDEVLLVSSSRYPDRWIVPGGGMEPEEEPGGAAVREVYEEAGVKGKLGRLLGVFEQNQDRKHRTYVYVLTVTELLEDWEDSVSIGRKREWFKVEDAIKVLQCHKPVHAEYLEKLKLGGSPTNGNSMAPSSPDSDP
UniProt Q96BD5: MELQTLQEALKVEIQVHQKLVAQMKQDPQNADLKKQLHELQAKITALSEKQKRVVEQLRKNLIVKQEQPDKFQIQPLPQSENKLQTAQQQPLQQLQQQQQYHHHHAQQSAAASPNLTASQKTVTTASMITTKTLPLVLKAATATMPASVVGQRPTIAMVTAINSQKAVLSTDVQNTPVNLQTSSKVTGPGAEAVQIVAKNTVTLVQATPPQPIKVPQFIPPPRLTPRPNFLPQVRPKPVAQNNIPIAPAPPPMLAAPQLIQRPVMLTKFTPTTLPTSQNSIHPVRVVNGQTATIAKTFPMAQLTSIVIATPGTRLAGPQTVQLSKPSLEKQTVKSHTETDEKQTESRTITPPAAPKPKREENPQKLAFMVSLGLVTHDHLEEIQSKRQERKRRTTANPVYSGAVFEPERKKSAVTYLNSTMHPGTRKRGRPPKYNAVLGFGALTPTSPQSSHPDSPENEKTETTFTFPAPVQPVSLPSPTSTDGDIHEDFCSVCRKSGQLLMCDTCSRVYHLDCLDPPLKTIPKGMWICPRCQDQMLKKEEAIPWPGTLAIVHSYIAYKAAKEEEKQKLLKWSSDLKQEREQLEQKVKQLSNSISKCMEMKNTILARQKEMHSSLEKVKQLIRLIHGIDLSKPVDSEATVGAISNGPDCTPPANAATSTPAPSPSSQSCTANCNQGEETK
UniProt Q96CU9: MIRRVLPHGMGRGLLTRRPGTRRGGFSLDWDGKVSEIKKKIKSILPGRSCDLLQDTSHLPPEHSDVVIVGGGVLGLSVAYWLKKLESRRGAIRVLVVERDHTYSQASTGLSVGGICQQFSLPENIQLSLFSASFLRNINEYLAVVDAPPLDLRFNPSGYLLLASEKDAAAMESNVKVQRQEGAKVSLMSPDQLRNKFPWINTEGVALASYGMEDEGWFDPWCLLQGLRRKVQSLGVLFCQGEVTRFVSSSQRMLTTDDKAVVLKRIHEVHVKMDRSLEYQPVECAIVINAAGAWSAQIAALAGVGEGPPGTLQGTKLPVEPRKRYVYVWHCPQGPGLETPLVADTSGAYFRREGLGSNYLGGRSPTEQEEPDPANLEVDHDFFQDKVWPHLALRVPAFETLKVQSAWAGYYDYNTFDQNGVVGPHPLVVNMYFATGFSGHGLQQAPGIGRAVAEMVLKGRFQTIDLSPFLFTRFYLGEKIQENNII
UniProt Q96GX9: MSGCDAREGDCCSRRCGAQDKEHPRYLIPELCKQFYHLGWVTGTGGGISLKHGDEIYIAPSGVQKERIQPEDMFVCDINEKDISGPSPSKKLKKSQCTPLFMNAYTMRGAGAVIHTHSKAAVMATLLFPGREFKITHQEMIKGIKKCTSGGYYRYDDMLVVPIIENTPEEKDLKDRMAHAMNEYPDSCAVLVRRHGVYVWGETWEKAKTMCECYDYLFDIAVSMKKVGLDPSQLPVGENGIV
UniProt Q96P11: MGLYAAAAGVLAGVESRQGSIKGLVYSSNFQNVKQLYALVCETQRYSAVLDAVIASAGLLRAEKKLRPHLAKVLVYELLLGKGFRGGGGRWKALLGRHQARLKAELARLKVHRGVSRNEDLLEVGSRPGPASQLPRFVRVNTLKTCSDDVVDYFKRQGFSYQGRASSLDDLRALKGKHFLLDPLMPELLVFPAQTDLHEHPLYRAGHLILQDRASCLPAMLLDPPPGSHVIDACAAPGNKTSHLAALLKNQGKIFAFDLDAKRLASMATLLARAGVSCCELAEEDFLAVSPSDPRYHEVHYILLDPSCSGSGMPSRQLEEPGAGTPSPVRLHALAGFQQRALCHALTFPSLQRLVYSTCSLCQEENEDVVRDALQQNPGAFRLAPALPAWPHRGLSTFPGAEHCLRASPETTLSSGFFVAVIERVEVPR
UniProt Q96E11: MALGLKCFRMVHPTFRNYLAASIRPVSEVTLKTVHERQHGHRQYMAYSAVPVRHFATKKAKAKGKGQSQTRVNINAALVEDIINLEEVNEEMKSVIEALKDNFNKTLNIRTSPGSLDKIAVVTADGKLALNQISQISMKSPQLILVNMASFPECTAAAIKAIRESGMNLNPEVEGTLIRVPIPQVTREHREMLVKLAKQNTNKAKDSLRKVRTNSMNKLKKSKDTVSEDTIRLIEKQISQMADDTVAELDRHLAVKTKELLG

Compound: Nc1ncnc2c1ncn2[C@@H]1O[C@H](COP(=O)(O)OP(=O)(O)NP(=O)(O)O)[C@@H](O)[C@H]1O [adenylyl imidodiphosphate]
Test: NP40-soluble protein abundance relative to vehicle (solubility fold change) (ratio); higher = more soluble protein in presence of AMP-PNP
Summary of the method: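 Data come from three independent experiments in which Dounce-homogenised Jurkat crude lysate was treated at eight concentrations from 0.1 to 10 mM. Treatment ran 10 min at room temperature and then 3 min at 37 °C, after which 0.8% NP40 and benzonase were added for 60 min at 4 °C before ultracentrifugation. The supernatant underwent TMT labelling and LC-MS/MS, and vsn-normalised intensities were expressed as fold change against the detergent-processed vehicle in each replicate.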

Row | Target | NP40-soluble protein abundance (concentration: 1mM) | NP40-soluble protein abundance (concentration: 2mM) | NP40-soluble protein abundance (concentration: 4mM) | NP40-soluble protein abundance (concentration: 6mM) | NP40-soluble protein abundance (concentration: 8mM) | NP40-soluble protein abundance (concentration: 10mM)
1 | EXOC4 (UniProt Q96A65) | 0.996 ± 0.04 | 0.993 ± 0.043 | 0.981 ± 0.025 | 0.966 ± 0.049 | 0.935 ± 0.017 | 0.956 ± 0.023
2 | UniProt Q96K17 | 1.01 ± 0.032 | 1.09 ± 0.1 | 1.04 ± 0.038 | 1.05 ± 0.036 | 1.04 ± 0.052 | 1.07 ± 0.059
3 | CHCHD1 (UniProt Q96BP2) | 1 ± 0.028 | 1.051 ± 0.0023 | 1.01 ± 0.013 | 0.981 ± 0.011 | 0.982 ± 0.04 | 0.968 ± 0.018
4 | UniProt Q92973 and related entries | 0.979 ± 0.053 | 0.912 ± 0.066 | 1.03 ± 0.015 | 1 ± 0.08 | 1.03 ± 0.083 | 0.978 ± 0.057
5 | DHTKD1 (UniProt Q96HY7) | 0.99 ± 0.026 | 0.939 ± 0.013 | 0.967 ± 0.045 | 0.93 ± 0.044 | 0.931 ± 0.033 | 0.899 ± 0.059
6 | PEX13 (UniProt Q92968) | 0.932 ± 0.1 | 0.877 ± 0.017 | 1.02 ± 0.16 | 1.11 ± 0.066 | 1.12 ± 0.15 | 1.11 ± 0.12
7 | UniProt Q93073 and related entries | 0.997 ± 0.026 | 1.01 ± 0.046 | 0.978 ± 0.039 | 0.996 ± 0.013 | 0.972 ± 0.024 | 0.971 ± 0.027
8 | UniProt Q96EM0 | 0.9928 ± 0.0018 | 1.022 ± 0.0049 | 0.999 ± 0.024 | 1.01 ± 0.026 | 1.0296 ± 0.0006 | 1.02 ± 0.021
9 | ELP4 (UniProt Q96EB1) | 0.992 ± 0.043 | 0.941 ± 0.072 | 0.979 ± 0.057 | 0.953 ± 0.074 | 0.973 ± 0.038 | 0.956 ± 0.065
10 | NUDT11 (UniProt Q96G61) | 1.02 ± 0.05 | 1.01 ± 0.034 | 1.03 ± 0.058 | 1.08 ± 0.053 | 1.1 ± 0.019 | 1.09 ± 0.052
11 | UniProt Q96BD5 and related entries | 1.02 ± 0.05 | 1.02 ± 0.016 | 1.05 ± 0.035 | 1.06 ± 0.016 | 1.07 ± 0.037 | 1.1 ± 0.029
12 | UniProt Q96CU9 and related entries | 0.985 ± 0.033 | 0.91 ± 0.097 | 1.03 ± 0.06 | 1.04 ± 0.025 | 1.09 ± 0.028 | 1.07 ± 0.04
13 | UniProt Q96GX9 and related entries | 1 ± 0.034 | 0.988 ± 0.0058 | 0.998 ± 0.021 | 0.997 ± 0.015 | 1.03 ± 0.011 | 1 ± 0.033
14 | UniProt Q92997 and related entries | 1.03 ± 0.019 | 1.03 ± 0.059 | 1.01 ± 0.015 | 1 ± 0.038 | 0.995 ± 0.048 | 0.996 ± 0.02
15 | UniProt Q96P11 and related entries | 1.01 ± 0.032 | 1.01 ± 0.069 | 1.09 ± 0.03 | 1.07 ± 0.017 | 1.108 ± 0.01 | 1.123 ± 0.011
16 | IPO9 (UniProt Q96P70) | 1.03 ± 0.035 | 1.03 ± 0.038 | 1.01 ± 0.03 | 0.982 ± 0.043 | 1.01 ± 0.051 | 0.979 ± 0.063
17 | UniProt Q96E11 and related entries | 0.973 ± 0.013 | 0.983 ± 0.024 | 0.943 ± 0.045 | 0.93 ± 0.013 | 0.903 ± 0.023 | 0.911 ± 0.035

A second format for part of the listing above:
Row	Target	NP40-soluble protein abundance (concentration: 1mM)	NP40-soluble protein abundance (concentration: 2mM)	NP40-soluble protein abundance (concentration: 4mM)	NP40-soluble protein abundance (concentration: 6mM)	NP40-soluble protein abundance (concentration: 8mM)	NP40-soluble protein abundance (concentration: 10mM)
11	UniProt Q96BD5 and related entries	1.02 ± 0.05	1.02 ± 0.016	1.05 ± 0.035	1.06 ± 0.016	1.07 ± 0.037	1.1 ± 0.029
12	UniProt Q96CU9 and related entries	0.985 ± 0.033	0.91 ± 0.097	1.03 ± 0.06	1.04 ± 0.025	1.09 ± 0.028	1.07 ± 0.04
13	UniProt Q96GX9 and related entries	1 ± 0.034	0.988 ± 0.0058	0.998 ± 0.021	0.997 ± 0.015	1.03 ± 0.011	1 ± 0.033
14	UniProt Q92997 and related entries	1.03 ± 0.019	1.03 ± 0.059	1.01 ± 0.015	1 ± 0.038	0.995 ± 0.048	0.996 ± 0.02
